The text below walks through data of PMC5829831, “Structural Basis for DNA Recognition by the Two-Component Response Regulator RcsB” (mBio, 2018).

This test has as its target RcsB, two-component response regulator of the Rcs phosphorelay system (E. coli) (UniProt P0DMC7). The test is described as follows: condition: only in the absence of DNA (RcsB 1 mg/ml); SEC-MALS; RcsB alone, without DNA, with and without 50 mM CPh + 10 mM MgCl2; 1 mg/ml; Superdex 75 10/300 GL; 10 mM Tris-HCl pH 8.3, 150 mM NaCl, 0.5 mM TCEP (10 mM MgCl2 in the runs with CPh); 22°C; both purified.

No constants are given. Whether binding was seen depends on the method and setting.

B1: RcsB, two-component response regulator of the Rcs phosphorelay system (natural protein, E. coli, UniProt P0DMC7 1-216, looked up)
chain: MNNMNVIIADDHPIVLFGIRKSLEQIEWVNVVGEFEDSTALINNLPKLDAHVLITDLSMPGDKYGDGITLIKYIKRHFPSLSIIVLTMNNNPAILSAVLDLDIEGIVLKQGAPTDLPKALAALQKGKKFTPESVSRLLEKISAGGYGDKRLSPKESEVLRLFAEGFLVTEIAKKLNRSIKTISSQKKSAMMKLGVENDIALLNYLSSVTLSPADKD
notes: RcsB from Escherichia coli, full length, REC domain, linker and HTH domain; theoretical mass of the monomer 24 kDa; In some samples carbamoyl phosphate (CPh) and MgCl2 were added to phosphorylate D56; also called RcsB* (in the presence of phosphodonor); unphosphorylated RcsB; source: purified RcsB
For B1, the binding result was “no binding”.
